Test results as given in the supplement of paper PMC4604168 (melanoma cell lines).
Some of the results follow. Many values rest on one well or one pass, so single values are uncertain.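 Cells were imaged in 1,536-well plates, and nuclei stained with an antibody against cleaved PARP were counted against all DNA-stained nuclei to give the apoptosis fraction. Screening doses were chosen to leave most cells alive, and resting and induced cleaved-PARP levels differ strongly between cell lines.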

system: LOXIMVI; experiment: cleaved PARP positive nuclei fraction relative to DMSO control; melanoma cells; higher = more apoptosis; conditions: library dose: low library concentration; 72 h

| SMILES | cleaved PARP positive nuclei fraction [%] |
| --- | --- |
| Cc1ccc(Nc2nccc(N(C)c3ccc4c(C)n(C)nc4c3)n2)cc1S(N)(=O)=O [Pazopanib] + CCN(CC)CCCCNc1ncc2cc(-c3cc(OC)cc(OC)c3)c(NC(=O)NC(C)(C)C)nc2n1 [PD173074] (first compound 0.4 µM, partner dose 0.1 µM) | 117 |
| Cc1cn(-c2cc(NC(=O)c3ccc(C)c(Nc4nccc(-c5cccnc5)n4)c3)cc(C(F)(F)F)c2)cn1 [nilotinib] + COc1ccc2c(c1)CCC1C2CCC2(C)C(NCCCCCCN3C(=O)C=CC3=O)CCC12 [U73122] (first compound 0.2 µM, partner dose 0.4 µM) | 108 |
| N#CC[C@H](C1CCCC1)n1cc(-c2ncnc3[nH]ccc23)cn1 [ruxolitinib] + COc1ccc2c(c1)CCC1C2CCC2(C)C(NCCCCCCN3C(=O)C=CC3=O)CCC12 [U73122] (first compound 1 µM, partner dose 0.4 µM) | 86.1 |
| CCCCCCCCCCCCCCCCCCOP(=O)([O-])OC1CC[N+](C)(C)CC1 [Perifosine] + O=C(O)C(=O)Nc1sc2c(c1C(=O)O)CCNC2 [TCS401] (first compound 0.4 µM, partner dose 1.66667 µM) | 83.3 |
| Cc1cn(-c2cc(NC(=O)c3ccc(C)c(Nc4nccc(-c5cccnc5)n4)c3)cc(C(F)(F)F)c2)cn1 [nilotinib] + COc1cc(N2CCC(N3CCN(C)CC3)CC2)ccc1Nc1ncc(Cl)c(Nc2ccccc2S(=O)(=O)C(C)C)n1 [NVP-TAE684] (first compound 0.2 µM, partner dose 0.08 µM) | 111 |
| Cc1ccc(Nc2nccc(N(C)c3ccc4c(C)n(C)nc4c3)n2)cc1S(N)(=O)=O [Pazopanib] + O=C(Nc1ccccc1)c1cc([N+](=O)[O-])ccc1Cl [GW9662] (first compound 0.4 µM, partner dose 2 µM) | 165 |
| O=C(Nc1cc(C(F)(F)F)cc(C(F)(F)F)c1)c1cc(Cl)ccc1O + O=C(O)C(=O)Nc1sc2c(c1C(=O)O)CCNC2 [TCS401] (first compound 0.016 µM, partner dose 1.66667 µM) | 230 |
